Experimental data as given in the supplement of paper PMC12067093, “Discovery and optimisation of a covalent ligand for TRIM25 and its application to targeted protein ubiquitination” (Chemical Science, 2025).
The other results are listed elsewhere or left out.

Compound: CC1Cc2ccccc2N1C(=O)C1CCCN(C1)C(=O)CCl (mixture of isomers) [TRIM25 ligand 11 (diastereomer mixture)]
Assay: probe-labelled cysteine peptide fold change vs DMSO (competition) (log2 fold change); higher = less target engagement (more negative = stronger competition)
Conditions: THP-1, incubation time: 4 h
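Also: competitive chemoproteomic profiling in live THP-1 cells with an iodoacetamide desthiobiotin (IA-DTB) probe, comparing probe-labelled peptide intensities in compound-treated cells against DMSO-treated controls.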

Target	probe-labelled cysteine peptide fold change (10 µM)	probe-labelled cysteine peptide fold change (50 µM)
DPAGT1_Q9H3H5_42_LCGQDLNK (UniProt Q9H3H5)	-0.0164	0.0571
DOHH_Q9BU89_122_QYSSDPVIEVAETCQLAVR (UniProt Q9BU89)	-0.239	-0.233
DYNC1H1_Q14204_1999_TSAPITCELLNK (UniProt Q14204)	-0.0212	-0.0602
DOCK11_Q5JSL3_492_VLQGNITHCAEPYIK (UniProt Q5JSL3)	0.0526	-0.0942
DPYSL2_Q16555_132_SCCDYSLHVDISEWHK (UniProt Q16555)	0.359	-0.0333
DOCK11_Q5JSL3_615_NCQNITVEVEEFVPEMTK (UniProt Q5JSL3)	0.0107	0.0828
DYNC1H1_Q14204_3693_DPTVEFPPDLCSR (UniProt Q14204)	0.334	0.235
DOK3_Q7L591_133_LADCVSVLPADGESCPR (UniProt Q7L591)	0.0537	0.00634
DTL_Q9NZJ0_544_SSQAEACSESR (UniProt Q9NZJ0)	-0.0366	-0.122
DPP3_Q9NY33_176_EGITTYFSGNCTMEDAK (UniProt Q9NY33)	-0.0308	0.0141
DOP1B_Q9Y3R5_1040_EACAVPEPQESGSEEHLPLSQFTTVDR (UniProt Q9Y3R5)	-0.00561	-0.145
DTX3L_Q8TDB6_599_AMSYKPICPTCQTSYGIQK (UniProt Q8TDB6)	0.0628	-0.118
DNMT1_P26358_1339_ACQLSVVVDDK (UniProt P26358)	0.127	-0.121
DOCK10_Q96BY6_1103_FDFLQEVCQHEHFIPLCLPIR (UniProt Q96BY6)	0.128	-0.111
DOCK2_Q92608_1203_MSCTVNLLNFYK (UniProt Q92608)	0.0959	-0.0016
DPYSL2_Q16555_179_FQLTDCQIYEVLSVIR (UniProt Q16555)	0.0597	0.143
DSC2_Q02487_797_GGHQTSESCR (UniProt Q02487)	0.122	-0.209
DSTN_P60981_147_ACIAEK (UniProt P60981)	0.106	0.171
E4F1_Q66K89_361_ALAPEPPVSQELPCSSEGSR (UniProt Q66K89)	0.214	0.115

Target	probe-labelled cysteine peptide fold change (10 µM)	probe-labelled cysteine peptide fold change (50 µM)
DPP7_Q9UHL4_338_LYHSCADPTGCGTGPDAR (UniProt Q9UHL4)	0.0279	0.022
DNMT1_P26358_664_CGVCEVCQQPECGK (UniProt P26358)	-0.0465	-0.119
E4F1_Q66K89_63_CQAEFTALEDFVQHK (UniProt Q66K89)	0.024	0.103
DUS3L_Q96G46_396_TVEVDFVDINVGCPIDLVYKK (UniProt Q96G46)	-0.169	-0.11
DOCK8_Q8NF50_121_TLQPSLPEEGVELDPHVRDCVQTYIR (UniProt Q8NF50)	-0.199	-0.228
DNPH1_O43598_117_ILCLFRPQSGR (UniProt O43598)	-0.158	-0.121
DSTN_P60981_12_ASGVQVADEVCR (UniProt P60981)	-0.0978	-0.147
DUS3L_Q96G46_396_TVEVDFVDINVGCPIDLVYK (UniProt Q96G46)	0.0383	-0.0463
DYNC1H1_Q14204_3389_ASLACGPMVK (UniProt Q14204)	0.0233	-0.0952
DOCK8_Q8NF50_305_ISENFHCDLNSDQFK (UniProt Q8NF50)	0.00696	-0.113
DYNLT1_P63172_83_NGAGLHTASSCFWDSSTDGSCTVR (UniProt P63172)	0.175	0.23
DNMT1_P26358_762_VCIDAETLEVGDCVSVIPDDSSK (UniProt P26358)	0.169	0.0555
DYNC1H1_Q14204_3147_EAIVNSCVFVHQTLHQANAR (UniProt Q14204)	0.112	-0.208
DYNC1H1_Q14204_4216_SACDTVDTWLDDTAK (UniProt Q14204)	-0.0825	0.0148
DPF2_Q92785_298_TGQPEELVSCSDCGR (UniProt Q92785)	0.26	0.181
DNPH1_O43598_117_RILCLFRPQSGR (UniProt O43598)	-0.313	-0.00125
DYNC1H1_Q14204_2594_HEALLYTWLAEHKPLVLCGPPGSGK (UniProt Q14204)	-0.104	-0.0762
DYNC1H1_Q14204_1977_MLSAVSQQVQCIQEALR (UniProt Q14204)	0.218	0.0709
DOCK2_Q92608_1408_NAPGQYIQCFTVQPVLDEHPR (UniProt Q92608)	0.0558	0.172

Target	probe-labelled cysteine peptide fold change (10 µM)	probe-labelled cysteine peptide fold change (50 µM)
DOCK11_Q5JSL3_1190_DTLYSCAAMPNSASR (UniProt Q5JSL3)	-0.166	-0.29
DOK1_Q99704_115_SHLLAADAPSSAAWVQTLCR (UniProt Q99704)	0.05	-0.0431
DOCK11_Q5JSL3_1204_DEFPCGFTSPANR (UniProt Q5JSL3)	0.12	-0.196
DOK1_Q99704_224_CPSGPGTFTFQTAQGNDIFQAVETAIHR (UniProt Q99704)	0.0799	0.0553
DUSP3_P51452_124_VLVHCR (UniProt P51452)	0.0145	0.0241
DOCK11_Q5JSL3_1074_FEFLQTICNHEHYIPLNLPMAFAK (UniProt Q5JSL3)	0.132	0.169
EAPP_Q56P03_262_AETDVEEIYHPVMCTECSTEVAVYDKDEVFHFFNVLASHS (UniProt Q56P03)	-0.0635	-0.0165
DOCK5_Q9H7D0_627_DSFQIATLICSTK (UniProt Q9H7D0)	-0.0157	-0.0163
DOK3_Q7L591_493_GPAPCDRP (UniProt Q7L591)	0.118	0.0968
DOCK2_Q92608_1234_DLHLDCDNYTEAAYTLLLHTWLLK (UniProt Q92608)	0.384	0.328
DOCK11_Q5JSL3_1883_QGCIEEQCK (UniProt Q5JSL3)	-0.0739	-0.14
DYNC1H1_Q14204_2639_TFDHYCEYR (UniProt Q14204)	0.159	0.134
DOK3_Q7L591_402_ASGPPGNEHLYENLCVLEASPTLHGGEPEPHEGPGSR (UniProt Q7L591)	0.108	-0.105
EAF2_Q96CJ1_87+98_ECILIINHDTGECR (UniProt Q96CJ1)	0.522	0.11
DPP8_Q6V1X1_506_CPIKEEIAITSGEWEVLGR (UniProt Q6V1X1)	0.0767	-0.0458
DPCD_Q9BVM2_164_HQLPLDDALLSFAHANCTLIISYQK (UniProt Q9BVM2)	0.156	0.141
DPYSL2_Q16555_132+133_SCCDYSLHVDISEWHK (UniProt Q16555)	0.17	0.000964
DUT_P33316-2_3_PCSEETPAISPSKR (UniProt P33316)	-0.159	-0.178
DSCR3_O14972_221_VETCGCAEGYAR (UniProt O14972)	0.19	0.164
